In patent US9580404B2, “Substituted azines as pesticides” (Novartis Tiergesundheit AG, priority 2012, dated 2017):
Some results were stated once for a whole list of compounds, not compound by compound.

Test system: Dirofilaria immitis microfilariae
Experiment: Dirofilaria immitis Microfilaria Assay
Type: cell-based
Conditions: at 30 ppm

Compound	Efficacy in percent reduced motility as compared to the control and standards
N#Cc1ccc(N2CCC(Oc3cc(N4CCN(c5ccc(C(F)(F)F)cc5)CC4)ncn3)CC2)cc1C(F)(F)F [Compound 23]	above 50%
N#Cc1ccc(N2CCC(Oc3cc(N4CCN(c5ccc(Cl)cc5)CC4)ncn3)CC2)cc1C(F)(F)F [Compound 88]	above 50%
